Results reported in patent publication US20240150270A1, “METHOD FOR SELECTIVE RECOVERY OF LIPOPHILIC COMPOUNDS” (priority 2021, published 2024).

Assay: Capture and release of target molecule by cross-linked polymer (HDI-linked cyclodextrin), slurry protocol
Format: physicochemical
Settings: for capture in EtOH only: Example 8
[1] = Example 1, 1 mg/mL CBD in 1:1 ethanol:water, polymer:CBD 10:1
[2] = Example 2, 68 mg CBD, 1 mg/mL in 1:1 ethanol:water, polymer:CBD 10:1
[3] = Example 4 as restated in Example 16, CBD and CBG together
[4] = Example 16, 20 mg CBD + 20 mg CBG, 100 mg polymer, 1:1 ethanol:water
[5] = Example 21, ethanol extract of hops, 10:1

C=C(C)[C@@H]1CCC(C)=C[C@H]1c1c(O)cc(CCCCC)cc1O [CBD, cannabidiol]
selectivity between CBD and CBG: No significant selectivity | CBD captured [1]: ~1.7 mg | percent of CBD captured [1]: About 15% | CBD captured [2]: 11.6 mg | percent of CBD captured [2]: about 17% | percent of CBD captured (Example 3, 1 mg/mL, polymer:CBD 50:1, after 10 minutes): 40 to 45% | CBD captured (Example 3, 500 mg polymer, 50:1, after 10 minutes): 4.0 to 4.5 mg | capture at 50:1 relative to 10:1 (Example 3, after 10 minutes): 4 to 5 times | percent recovered [3]: 45% | fold increase 50:1 vs 10:1 (Example 7, 2 mg/mL): 2.3 fold | capture in EtOH only (2 mg/mL, polymer:CBD 10:1): no significant capture | capture in EtOH only (4 mg/mL, polymer:CBD 10:1): no significant capture | percent capture (Example 10, water slowly added to 3:7 EtOH:H2O, 2 mg/mL): 98% | percent of CBD captured (Example 12, fresh cross-linked polymer, 2 mg/mL 1:1, 10:1): 23% | percent of CBD captured (Example 12, reconstituted (recycled) cross-linked polymer): 24% | percent of CBD captured (Example 12, second run of fresh cross-linked polymer): 25% | plateau of mg captured (Example 15, 100 mg polymer, 2 mg/mL, 5-20 mL): 3.2 mg | percent recovered [4]: 17% | amount recovered (Example 16, 100 mg polymer): 3.4 mg | percent capture (Example 18, 100 mg polymer, 3:7 ethanol:water, all CBD amounts): over 98% | release in ethanol extract of hops relative to pure ethanol (Example 20, first trial): about 52% | capture in ethanol extract of hops relative to pure ethanol (Example 20, polymer:CBD 10:1): 56% to 74 | release in ethanol extract of hops relative to pure ethanol (Example 20, second trial): about 50% | CBD captured [5]: 9.6 mg | CBD released [5]: 5.5 mg | CBD captured (Example 21, pure ethanol, 10:1): about 9.8 mg | CBD released (Example 21, pure ethanol, 10:1): about 9.8 mg | mass of collected CBD (Example 47, release by butane stream 10 min, 0.5 g polymer): 18.6 mg | mass of collected CBD (Example 47, release by mixture of liquidized gases (hydrocarbons, carbon dioxide) 10 min, 0.5 g polymer): 36.3 mg | mass of collected CBD (Example 48, heat-driven release, short-path distillation, 1.0 g polymer): 39.4 mg

CCCCCc1cc(O)c(C/C=C(\C)CCC=C(C)C)c(O)c1 [CBG, cannabigerol]
amount captured (Example 4, 500 mg polymer): 4.5 to 5.0 mg | percent captured (Example 4, 500 mg polymer, 10 mg CBG): 45 to 50% | selectivity between CBD and CBG (Example 4, CBD and CBG in competition): No significant selectivity | percent recovered [3]: 54% | percent recovered [4]: 24% | amount recovered (Example 16, 100 mg polymer): 4.8 mg

Where two headings read alike, the source gives them in different places.
